Measurements: article PMC9197937
These are yes or no findings as the source states them, for the method shown. Binding calls can cover weak binding; strength is not graded here.

Sequences of proteins named here, by UniProt entry; tags and fusion partners are left off. A change or cut given only in a name is not applied to a line headed by its entry.
UniProt P0C2H8: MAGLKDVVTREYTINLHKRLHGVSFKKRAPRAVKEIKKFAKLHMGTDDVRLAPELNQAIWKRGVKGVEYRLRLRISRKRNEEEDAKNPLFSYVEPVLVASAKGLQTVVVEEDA

Target: eL31 (S. cerevisiae (endogenous in BY4741 background)) (UniProt P0C2H8)
Experiment: cryo-EM structure; RNC-RAC-Ssb1 sample: purified RNC-RAC supplemented with RAC and Ssb1 with ATP (RNC:RAC:Ssb1:ATP roughly 1:5:5:100); states B1-B3, State B2 at 2.9 Å, ZHD and JD region 4 Å; both purified

B1: Zuo1 of recombinant RAC (protein, UniProt P32527 1-433)
chain: MFSLPTLTSDITVEVNSSATKTPFVRRPVEPVGKFFLQHAQRTLRNHTWSEFERIEAEKNVKTVDESNVDPDELLFDTELADEDLLTHDARDWKTADLYAAMGLSKLRFRATESQIIKAHRKQVVKYHPDKQSAAGGSLDQDGFFKIIQKAFETLTDSNKRAQYDSCDFVADVPPPKKGTDYDFYEAWGPVFEAEARFSKKTPIPSLGNKDSSKKEVEQFYAFWHRFDSWRTFEFLDEDVPDDSSNRDHKRYIERKNKAARDKKKTADNARLVKLVERAVSEDPRIKMFKEEEKKEKERRKWEREAGARAEAEAKAKAEAEAKAKAESEAKANASAKADKKKAKEAAKAAKKKNKRAIRNSAKEADYFGDADKATTIDEQVGLIVDSLNDEELVSTADKIKANAAGAKEVLKESAKTIVDSGKLPSSLLSYFV
With B1 the binding was “binds”.
